Data as given in PubChem BioAssay AID504786 (Drosophila RNAi Screening Center, 2011)
Assay: 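Positive regulators of HIF-driven reporter output in Drosophila cells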 (primary screen). Cells: Drosophila S2 cells with a stable HIF luciferase reporter. Reagents: long dsRNA against Drosophila genes, about 0.2 µg dsRNA per well of a 384-well plate. Time to read-out: three days of knock-down, then 20 h of DFO before reading. Conditions: desferrioxamine (DFO) at 100 µM, an iron chelator that mimics hypoxia, for 20 h. Measurement: 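HIF reporter luminescence in cells given 100 µM DFO for 20 h, using the mouse ldh-a hypoxia-response element, scored as per-plate z-scores; higher means greater loss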. Direction: z-score: higher = stronger loss of HIF reporter signal.
In all, the deposit lists about 21,000 reagents; this is an unselected part of those with a known target gene and a result. 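Primary screen; positive scores mean lost reporter signal, so the sign may be inverted from the usual convention.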 No sequences are given here.

Cpr92F [DRSC15819]
- z-score, replicate 1: -0.6
- z-score, replicate 2: -0.1

CG2111 [DRSC18205]
- z-score, replicate 1: -0.3
- z-score, replicate 2: 0.1

Caf1-105 [DRSC06209]
- z-score, replicate 1: -0.4
- z-score, replicate 2: -0.4

U2A [DRSC06445]
- z-score, replicate 1: 0.3
- z-score, replicate 2: 0.7

Picot [DRSC07508]
- z-score, replicate 1: -0.1
- z-score, replicate 2: 0.1

Pcp [DRSC03395]
- z-score, replicate 1: -0.4
- z-score, replicate 2: -0.7

Gr43a [DRSC06658]
- z-score, replicate 1: -0.3
- z-score, replicate 2: -0.4

dtr [DRSC01847]
- z-score, replicate 1: 0.2
- z-score, replicate 2: -0.3

rin [DRSC17045]
- z-score, replicate 1: -0.4
- z-score, replicate 2: -1.3

Continued, starting with the last 3 of the part before.
Gr43a [DRSC06658]
- z-score, replicate 1: -0.3
- z-score, replicate 2: -0.4

dtr [DRSC01847]
- z-score, replicate 1: 0.2
- z-score, replicate 2: -0.3

rin [DRSC17045]
- z-score, replicate 1: -0.4
- z-score, replicate 2: -1.3

CG9799 [DRSC16567]
- z-score, replicate 1: 0.4
- z-score, replicate 2: 1.8

CheB42c [DRSC04972]
- z-score, replicate 1: -0.3
- z-score, replicate 2: -0.3

SsRbeta [DRSC11290]
- z-score, replicate 1: -0.4
- z-score, replicate 2: -0.6

Sardh [DRSC06981]
- z-score, replicate 1: -0.2
- z-score, replicate 2: -0.8

flap [DRSC03918]
- z-score, replicate 1: 0.2
- z-score, replicate 2: 0

flap [DRSC04087]
- z-score, replicate 1: -0.3
- z-score, replicate 2: -0.1

CG15812 [DRSC08479]
- z-score, replicate 1: -0.4
- z-score, replicate 2: -0.6

CG18666 [DRSC02694]
- z-score, replicate 1: -0.2
- z-score, replicate 2: -0.2

Vps39 [DRSC16205]
- z-score, replicate 1: -0.2
- z-score, replicate 2: 0

phyl [DRSC07663]
- z-score, replicate 1: -0.2
- z-score, replicate 2: 0

CG34459 [DRSC06973]
- z-score, replicate 1: -0.1
- z-score, replicate 2: -0.4

boss [DRSC16916]
- z-score, replicate 1: -0.5
- z-score, replicate 2: -0.8

CG13685 [DRSC10043]
- z-score, replicate 1: -0.2
- z-score, replicate 2: -0.3

Adk2 [DRSC09827]
- z-score, replicate 1: -0.2
- z-score, replicate 2: -0.1

Actn [DRSC17724]
- z-score, replicate 1: -0.4
- z-score, replicate 2: -0.4

S-Lap1 [DRSC10627]
- z-score, replicate 1: -0.2
- z-score, replicate 2: -0.7

CG6324 [DRSC19985]
- z-score, replicate 1: -0.2
- z-score, replicate 2: -0.7

CG12360 (retired record) [DRSC14505]
- z-score, replicate 1: -0.1
- z-score, replicate 2: -0.5
